Results reported in patent publication US4446325A, “1,4-Dihydropyridine compounds” (priority 1981, dated 1984).

Assay: in vivo
Conditions: mouse, oral, ddy male mice, mortality one week after administration
From the text: […]. Path. Pharmak., 177, 379 (1935)] from the mortality one week after administration.

COC(=O)C1=C(C)NC(C)=C(C(=O)OC)C1c1ccccc1[N+](=O)[O-] [Compound H, Dimethyl 2,6-dimethyl-4-(2-nitrophenyl)-1,4-dihydropyridine-3,5-dicarboxylate, reference compound]
LD50 at 168 h: 550 mg/kg
